Measured values as given in PubChem BioAssay AID652054 (National Center for Advancing Translational Sciences (NCATS), 2013).
The whole screen tested about 360,000 compounds, of which about 9,100 (2.5%) were called active. This list was built around the results that the source calls inconclusive (neither active nor inactive); the mix of calls is not that of the screen. Cut-off read from the data, not from the text of the source: active = max response below about -50%; inconclusive = no clear call, values can overlap the other calls; inactive = above that. A structure can be active in one record and inactive in another.

By UniProt entry, the sequences of proteins in these tests, tags left out.
UniProt P35462, whole entry, looked up: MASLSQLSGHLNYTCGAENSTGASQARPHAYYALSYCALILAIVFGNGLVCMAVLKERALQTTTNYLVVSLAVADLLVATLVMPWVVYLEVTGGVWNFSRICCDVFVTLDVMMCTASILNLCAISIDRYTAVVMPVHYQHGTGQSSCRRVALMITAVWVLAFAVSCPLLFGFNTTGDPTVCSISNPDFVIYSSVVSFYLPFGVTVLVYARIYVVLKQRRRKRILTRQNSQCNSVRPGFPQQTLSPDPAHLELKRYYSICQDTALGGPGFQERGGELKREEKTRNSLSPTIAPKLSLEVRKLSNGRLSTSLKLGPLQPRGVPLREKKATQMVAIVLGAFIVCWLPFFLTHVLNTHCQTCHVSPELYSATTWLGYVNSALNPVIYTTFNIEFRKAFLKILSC

Biological target: D(3) dopamine receptor (Homo sapiens) (UniProt P35462)
Test: qHTS of D3 Dopamine Receptor Antagonist: qHTS
Details: D3R cells, DiscoveRx beta-arrestin luminescence, antagonist mode; active compounds read low
Summary of the method: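 Cells plated overnight at 1500 cells/well, then exposed to library compounds with dopamine controls for 90 minutes at 37 degrees C. DiscoveRx reagent added for 30–60 minutes at room temperature; luminescence read, quantitative HTS format.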
% is set by controls: 0 for no effect and ±100 for the full control effect.

Max response, negative = inhibition, inconclusive:
CCOC(=O)CSc1cccc2cccnc12 -47.5%
O=C(CCCC(=O)OCC1CCCO1)OCC1CCCO1 (configuration not stated) -31.9%
O=C(CC(=O)c1cccs1)c1ccncc1 -47.7%
c1ccc(N2CCN(Cc3ccsc3)CC2)nc1 -35%
Cn1c(=O)c2c(nc(SCc3nc(N)nc(N4CCCCC4)n3)n2C)n(C)c1=O -32.5%
COc1ccc(CNCc2c(F)cccc2F)cc1OC -31.2%
CSc1nnc(Cn2c(=O)sc3ccccc32)n1-c1ccccc1C -42.5%
O=C(Nc1ccc(S(=O)(=O)N2CCCCCC2)cc1)c1c(F)cccc1F -33.9%
O=C(NCc1ccc2[nH]c3c(c2c1)CCCC3)c1ccc(S(=O)(=O)N2CCCCC2)cc1 -30.1%
COc1cc(NC(=O)CSc2ncnc3scc(-c4ccccc4)c23)c(C(=O)O)cc1OC -44.4%
O=[N+]([O-])c1cccc(-c2nc(-c3ccccc3)c(-c3cccs3)[nH]2)c1 -41.1%
COc1cccc(-c2nc3n(n2)C(c2ccccc2Cl)C(C(N)=O)=C(C)N3)c1 (configuration not stated) -34.5%
Cc1ccccc1S(=O)(=O)Cc1ccc(C(=O)NCCN(Cc2ccccc2)C(C)C)o1 -38%
O=C(O)CSc1nc2sc3c(c2c(=O)n1Cc1ccccc1)CCCCC3 -41.3%
O=C1CN(S(=O)(=O)c2ccc(Br)cc2)c2ccccc2N1 -32.4%
Cc1ccc(NC(=O)CCN2C(=O)C3CC=CCC3C2=O)cc1Cl (configuration not stated) -48.2%
Cc1[nH]c2ccc(Br)cc2c(=O)c1CN1CCCCC1 -45.8%
CCN(CC)c1ccc(/C=N/Nc2nc3ccccc3[nH]2)c(O)c1 -30%
CC1CCN(C(=O)CSc2nnc(Cc3ccccc3)o2)CC1 -31.2%
Cc1cc(C)c(NC(=S)NC(NC(=O)c2ccccc2)C(Cl)(Cl)Cl)c(C)c1 (configuration not stated) -32.9%
CC(C)C[C@@H](CN)NC(=O)c1nc[nH]c1C(=O)N[C@@H](CC(=O)O)C(=O)CNC[C@H](C)NC(=O)c1nc[nH]c1C(=O)N[C@@H](CC(=O)O)C(=O)O -36.8%
O=C(N[C@@H]1CCC(=O)N(CC[C@H](Sc2ccc(Br)cc2)c2ccccc2)CC1)OCc1ccccc1 -39.7%
CCCN1C2CCCC1CC(NC(=O)c1ccccc1OCC)C2 (configuration not stated) -38.8%
Cc1cccn2c(=O)c(/C=C3\SC(=S)N(CC(C)C)C3=O)c(NCCCOC(C)C)nc12 -31.7%
Cc1cc(-c2n[nH]c(=S)n2/N=C/c2cccc(O)c2)n[nH]1 -47.7%
CCOC(=O)C1CCCN(CCC(=O)Nc2cc(C)ccc2C)C1 (configuration not stated) -37.3%
COC(=O)c1ccc(Sc2ccccc2NS(=O)(=O)c2ccc(C)cc2)nc1 -33%
O=C(NCCCN1CCN(c2cccc(Cl)c2)CC1)c1ccc(N2CCCC2=O)cc1 -45.3%
O=[N+]([O-])c1ccc(N/N=C/c2cn(-c3ccccc3)nc2-c2ccccc2)cc1 -33.4%
COc1ccc(-n2c(N)c(C(=O)NCc3ccco3)sc2=S)cc1 -32%
CCCCNc1ncnc2c1cnn2-c1ccc(Cl)cc1 -32%
Brc1ccccc1OCCN1CCOCC1 -31.5%
CC(C)Oc1ccc(S(=O)(=O)N2CCCCC2)cc1NC(=O)CN1C(=O)NC(C)(C2CC2)C1=O (configuration not stated) -40.4%
CN1CCN(C(=S)Nc2ccc([N+](=O)[O-])cc2)CC1 -41.2%
CNC(=O)NC(=O)CSc1ccc(S(=O)(=O)N(C)C2CCCCC2)cn1 -32.9%
COc1ccc(NCc2nnc(SCC(=O)Nc3cccc(C)c3)o2)cc1 -41.7%
O=C(NNC(=S)NC1CC2CCC1C2)c1ccc(Cl)cc1 (configuration not stated) -34.1%
Cc1cc2ccccc2n1CCNC(=O)Cc1cccc2ccccc12 -31.3%
CCOc1ccc(NC(=O)CC(NC(C)=O)c2ccccc2)cc1S(=O)(=O)N1CCCC1 (configuration not stated) -37.1%
c1ccc2oc(SCc3cn4ccsc4n3)nc2c1 -45%
Cc1ccc(NC(=S)N2CCCN(Cc3ccc(F)cc3)C2)c(C)c1 -46.5%
CC(=O)Oc1ccccc1Cn1c(C)c(C(=O)NCc2cccc([N+](=O)[O-])c2)sc1=O -31%
O=C(NCCN1CCCC1)C(c1ccccc1)c1ccccc1 -44.2%
CC1CC(=O)C=C(O)C1C(=O)OC(C)(C)C (configuration not stated) -42.3%
COc1cccc(CN2CCC(C(=O)N3CCN(Cc4ccc5c(c4)OCO5)CC3)CC2)c1 -48.2%
CCCn1c(C(C)NC(=O)c2ccccc2)nc2ccccc21 (configuration not stated) -39.7%
Cc1nc(-c2ccccc2)nn1-c1ccc([N+](=O)[O-])cc1 -32.4%
COc1ccc(NC(=O)CNS(=O)(=O)c2cccs2)c(OC)c1 -37.4%
CC(=O)Nc1ccc(C(=O)CN2C(=O)NC3(CCCCCC3)C2=O)c(F)c1 -33.5%
C[C@@H]1CN([C@@H](C)CO)S(=O)(=O)c2ccc(Br)cc2O[C@H]1CN(C)C(=O)c1ccc2c(c1)OCO2 -31.3%
Nc1ccn([C@@H]2O[C@H](CNCc3ccc(Oc4cc(-n5cccn5)ncn4)cc3)[C@@H](O)[C@H]2O)c(=O)n1 -35.7%
c1ccc(-c2[nH]ncc2CN2CCc3ccccc3C2)cc1 -31.5%

A portion taken from the entries so far:
Max response, negative = inhibition, inconclusive:
CN1CCN(C(=S)Nc2ccc([N+](=O)[O-])cc2)CC1 -41.2%
CNC(=O)NC(=O)CSc1ccc(S(=O)(=O)N(C)C2CCCCC2)cn1 -32.9%

Next part:

Max response, negative = inhibition, active:
CCOC(=O)c1oc2ccccc2c1CN1CCN(c2ccccc2)CC1 -77.3%
CCc1ccc(S(=O)(=O)NC(=S)NC2CCCCC2)cc1 -67.3%
O=C(CNC(=O)c1cccc(Br)c1)N/N=C/c1cc(Br)cc(Br)c1O -71.3%
O=C(c1ccc(-c2ccccc2)cc1)C1CCCN(C(=O)c2cncs2)C1 (configuration not stated) -57.7%
Clc1ccc(OCCNCCc2ccccc2)cc1 -59.2%
NC(=O)C1(N2CCCCC2)CCN(Cc2ccc(F)cc2)CC1 -88.4%
OCCN1CCN(CC(O)COc2ccc(-c3ccccc3)cc2)CC1 (configuration not stated) -62.1%
Cc1ccc(NC(=O)CN2CC(C)SC2=NC2CCCCC2)cc1 (configuration not stated) -95.5%
C1=CC2CC1CC2CN1CCN(Cc2ccccc2)CC1 (configuration not stated) -53.1%
COc1ccc(C(c2nnnn2C2CCCCC2)N2CCN(C/C=C/c3ccccc3)CC2)cc1 (configuration not stated) -83.8%
COc1ccc(S(N)(=O)=O)cc1C(=O)NCCCN1CCN(c2cccc(Cl)c2)CC1 -50%
CCOc1ccc(-c2nc(CSCC(=O)NC3CCN(Cc4ccccc4)CC3)c(C)o2)cc1 -117%
CSc1cccc(CN2CCN(Cc3ccc(F)c(F)c3)C(CCO)C2)c1 (configuration not stated) -62.5%
Cc1ccccc1Cn1c(C)c(C(=O)NCc2cccc(Cl)c2)sc1=O -53.4%
Cc1csc(NC(=O)CSc2nncn2C)n1 -63.4%

Max response, negative = inhibition, inactive:
Cn1nc(C(C)(C)C)cc1NC(=O)C1(C)CCN1C(=O)c1ccccc1CCc1ccccc1 (configuration not stated) -25.1%
O=C(NCC1CCCO1)c1[nH]c(C(F)(F)F)nc1-c1ccccc1 (configuration not stated) 29.1%
Cc1cc(C)n2nnnc2c1C#N -18.3%
O=C(Cc1ccccc1[N+](=O)[O-])N/N=C/c1cccnc1 -4.69%
O=C(CN1CCN(c2nc(-c3ccc(Cl)cc3)cs2)CC1)NCc1ccco1 20.5%
COc1ccc(N2CCN(C(=O)c3ccccc3N(C)S(=O)(=O)c3ccccc3)CC2)cc1 21.7%
CCOC(=O)C(C)On1c(-c2ccccc2)nc2ccc([N+](=O)[O-])cc21 (configuration not stated) -2.02%
CC(OC(=O)Cc1ccccc1F)C(=O)Nc1ccc(Cl)cn1 (configuration not stated) 6.55%
COc1ccc(NC(=O)CSc2nncs2)cc1OC 6.55%
CSc1cccc(NC(=O)c2[nH]c(C)c(C(C)=O)c2C)c1 -0.49%
COc1ccc(NC(=O)CN(C)C(=O)c2ccc(N3CCCC3)c([N+](=O)[O-])c2)cc1 -7.86%
Cc1nn(-c2ccc(N3CCOCC3)nn2)c(C)c1CCC(=O)Nc1ccc(F)cc1 -2.12%
COc1ccc2c(c1)OC[C@H]1[C@H]2N2C(=O)c3ccc(F)cc3NC(=O)[C@@]2(C)[C@H]1c1ccccc1 -24.7%
Cc1ccc2c(c1)C(c1ccccc1)N(C(=O)c1ccc(Br)o1)CC(=O)N2 (configuration not stated) 2.49%
CCCOc1ccc(F)cc1-c1cc(C(=O)Nc2ccc(OC)c(OC)c2)[nH]n1 5.33%
COc1ccccc1Cn1c(C)c(C(=O)NCc2ccco2)sc1=O -29.1%
CCN1C(=O)/C(=C\N2CCN(C)CC2)SC1=S -4.74%
S=C(NCCC(c1ccccc1)c1ccccc1)Nc1cccc(Cl)c1 2.72%
Cc1ccc(S(=O)(=O)CCC(=O)NCCN2C(=O)S/C(=C\c3ccccc3)C2=O)cc1 9.5%
CCC(c1ccc(O)c(O)c1)C(CC)c1ccc(O)c(O)c1 (configuration not stated) 0%

Ordered by SMILES length (smallest number first): part of the list above
Max response, negative = inhibition, inactive:
Cc1cc(C)n2nnnc2c1C#N -18.3%
COc1ccc(NC(=O)CSc2nncs2)cc1OC 6.55%
CCN1C(=O)/C(=C\N2CCN(C)CC2)SC1=S -4.74%
CC(OC(=O)Cc1ccccc1F)C(=O)Nc1ccc(Cl)cn1 (configuration not stated) 6.55%
O=C(Cc1ccccc1[N+](=O)[O-])N/N=C/c1cccnc1 -4.69%
O=C(NCC1CCCO1)c1[nH]c(C(F)(F)F)nc1-c1ccccc1 (configuration not stated) 29.1%
CCCOc1ccc(F)cc1-c1cc(C(=O)Nc2ccc(OC)c(OC)c2)[nH]n1 5.33%
Cc1ccc(S(=O)(=O)CCC(=O)NCCN2C(=O)S/C(=C\c3ccccc3)C2=O)cc1 9.5%
COc1ccc(NC(=O)CN(C)C(=O)c2ccc(N3CCCC3)c([N+](=O)[O-])c2)cc1 -7.86%
COc1ccc2c(c1)OC[C@H]1[C@H]2N2C(=O)c3ccc(F)cc3NC(=O)[C@@]2(C)[C@H]1c1ccccc1 -24.7%
